Test results reported in patent US20190153406A1.
Substitutions are numbered along the chain they refer to. Names may count otherwise. No constants are given. Whether binding was seen depends on the method and setting. For some of these results: In cells and extracts the contact can be indirect. Some results given as binding are weak or reduced against the parent protein; the word gives no strength. Values belong to the binder of their own block, whether it stands above or below them.

Chains of the proteins cited; added tags and fusions are not shown.
UniProt P35569: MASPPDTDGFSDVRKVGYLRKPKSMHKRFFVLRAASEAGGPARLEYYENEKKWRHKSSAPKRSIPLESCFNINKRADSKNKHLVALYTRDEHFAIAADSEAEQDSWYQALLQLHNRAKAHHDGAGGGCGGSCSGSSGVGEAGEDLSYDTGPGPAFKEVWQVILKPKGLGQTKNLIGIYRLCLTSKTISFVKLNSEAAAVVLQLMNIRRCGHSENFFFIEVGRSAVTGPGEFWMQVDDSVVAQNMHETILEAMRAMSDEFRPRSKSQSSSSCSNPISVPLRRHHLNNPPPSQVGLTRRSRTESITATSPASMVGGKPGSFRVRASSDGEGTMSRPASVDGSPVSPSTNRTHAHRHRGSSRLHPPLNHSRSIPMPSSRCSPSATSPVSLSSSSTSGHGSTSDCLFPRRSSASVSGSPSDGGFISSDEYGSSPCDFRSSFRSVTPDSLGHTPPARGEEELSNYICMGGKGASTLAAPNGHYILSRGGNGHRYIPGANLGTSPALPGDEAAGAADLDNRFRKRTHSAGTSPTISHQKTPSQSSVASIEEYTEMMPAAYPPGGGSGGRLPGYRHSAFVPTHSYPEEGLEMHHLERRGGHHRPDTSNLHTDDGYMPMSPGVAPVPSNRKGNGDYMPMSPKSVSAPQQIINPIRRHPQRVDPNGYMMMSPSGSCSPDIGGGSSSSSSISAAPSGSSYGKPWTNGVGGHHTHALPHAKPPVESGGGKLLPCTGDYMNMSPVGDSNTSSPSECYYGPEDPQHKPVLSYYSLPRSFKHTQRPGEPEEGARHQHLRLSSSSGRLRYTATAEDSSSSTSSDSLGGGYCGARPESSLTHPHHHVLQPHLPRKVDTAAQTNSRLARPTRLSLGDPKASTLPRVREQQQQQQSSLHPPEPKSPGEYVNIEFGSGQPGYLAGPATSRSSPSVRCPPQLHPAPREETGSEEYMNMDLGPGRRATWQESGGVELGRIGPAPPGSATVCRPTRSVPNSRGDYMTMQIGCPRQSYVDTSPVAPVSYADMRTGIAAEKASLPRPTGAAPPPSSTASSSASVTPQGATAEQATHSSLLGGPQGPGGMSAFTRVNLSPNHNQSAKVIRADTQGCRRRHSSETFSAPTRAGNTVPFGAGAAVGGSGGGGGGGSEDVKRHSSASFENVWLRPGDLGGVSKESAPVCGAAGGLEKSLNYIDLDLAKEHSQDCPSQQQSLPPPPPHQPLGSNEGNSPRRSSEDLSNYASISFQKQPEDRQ
UniProt P35570: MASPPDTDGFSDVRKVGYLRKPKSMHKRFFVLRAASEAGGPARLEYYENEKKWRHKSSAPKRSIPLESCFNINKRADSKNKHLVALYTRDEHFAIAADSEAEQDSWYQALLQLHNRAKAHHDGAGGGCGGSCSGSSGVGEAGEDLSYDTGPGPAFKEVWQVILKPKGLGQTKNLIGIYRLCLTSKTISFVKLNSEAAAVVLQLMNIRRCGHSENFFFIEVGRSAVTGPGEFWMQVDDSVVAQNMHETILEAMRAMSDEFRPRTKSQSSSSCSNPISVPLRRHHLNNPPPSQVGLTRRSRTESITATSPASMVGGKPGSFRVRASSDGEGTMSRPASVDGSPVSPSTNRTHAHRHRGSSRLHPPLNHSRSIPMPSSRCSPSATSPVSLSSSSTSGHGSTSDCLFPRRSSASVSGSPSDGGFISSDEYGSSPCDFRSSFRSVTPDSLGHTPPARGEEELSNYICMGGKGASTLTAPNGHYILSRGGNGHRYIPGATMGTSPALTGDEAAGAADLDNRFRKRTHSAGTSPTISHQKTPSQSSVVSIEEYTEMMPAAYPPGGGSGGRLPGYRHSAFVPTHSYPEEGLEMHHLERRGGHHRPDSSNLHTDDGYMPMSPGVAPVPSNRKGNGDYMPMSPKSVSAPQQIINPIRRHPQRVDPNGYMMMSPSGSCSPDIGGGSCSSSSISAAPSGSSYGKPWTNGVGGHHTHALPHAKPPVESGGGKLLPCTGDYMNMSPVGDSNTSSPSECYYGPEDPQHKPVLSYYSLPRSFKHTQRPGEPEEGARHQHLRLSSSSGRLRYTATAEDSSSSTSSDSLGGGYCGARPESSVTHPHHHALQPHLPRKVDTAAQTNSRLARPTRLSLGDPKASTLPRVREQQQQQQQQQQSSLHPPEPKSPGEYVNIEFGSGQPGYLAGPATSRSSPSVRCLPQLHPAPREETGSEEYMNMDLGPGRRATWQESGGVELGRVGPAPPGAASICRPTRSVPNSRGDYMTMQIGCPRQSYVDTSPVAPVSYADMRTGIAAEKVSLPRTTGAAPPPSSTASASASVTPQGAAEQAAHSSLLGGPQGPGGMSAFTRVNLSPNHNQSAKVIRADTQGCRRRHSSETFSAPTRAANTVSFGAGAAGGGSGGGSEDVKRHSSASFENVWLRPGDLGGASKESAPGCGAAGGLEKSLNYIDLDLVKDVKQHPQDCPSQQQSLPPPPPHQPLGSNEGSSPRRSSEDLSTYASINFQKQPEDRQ

How the values were obtained:
[1] = target: mouse insulin receptor substrate IRS1 (mouse) (UniProt P35569); assay: co-immunoprecipitation of IRS1 from HEK293T cells co-expressing both, Western Blot
[2] = target: rat insulin receptor substrate IRS1 (rat) (UniProt P35570); assay: SPR, Rat IRS1 immobilized (500 RU), MG53 in the mobile phase [upper panel]
[3] = target: mouse insulin receptor substrate IRS1 (mouse) (UniProt P35569); assay: co-immunoprecipitation from HEK293T cells: IP a-IRS1, Western blot for MG53

binding [1]: binds
binding [2]: binds
binding [3]: binds
B1: mouse wild-type MG53 (enzyme)
chain: MSAAPGLLRQELSCPLCLQLFDAPVTAECGHSFCRACLIRVAGEPAADGTVACPCCQAPTRPQALSTNLQLSRLVEGLAQVPQGHCEEHLDPLSIYCEQDRTLVCGVCASLGSHRGHRLLPAAEAQARLKTQLPQQKMQLQEACMRKEKTVAVLEHQLVEVEETVRQFRGAVGEQLGKMRMFLAALESSLDREAERVRGDAGVALRRELSSLNSYLEQLRQMEKVLEEVADKPQTEFLMKFCLVTSRLQKILSESPPPARLDIQLPVISDDFKFQVWKKMFRALMPALEELTFDPSSAHPSLVVSSSGRRVECSDQKAPPAGEDTRQFDKAVAVVAQQLLSQGEHYWEVEVGDKPRWALGVMAADASRRGRLHAVPSQGLWLLGLRDGKILEAHVEAKEPRALRTPERPPARIGLYLSFADGVLAFYDASNPDVLTPIFSFHERLPGPVYPIFDVCWHDKGKNAQPLLLVGPEQEQA

binding [3]: no binding
B2: mouse MG53 S255A mutant (enzyme)
chain: B1 chain with S255A
